The results in this text go back to patent US5885833.

The exact form of at least one protein or probe is not confirmed. For some assays here: At least one result comes from cells or an extract, where the contact may be indirect.

The test system of data set [1] is HeLa nuclear protein(s) binding B-myb CHR (Homo sapiens). Kind of data set: EMSA. The note with it: HeLa nuclear extract; protein unidentified; probe not given; protein in an extract; protein details: HeLa nuclear extract.
The subject of data set [2] is E2F4-DP1-p107 complex (p107 aa 744-2460 as printed). Kind of data set: EMSA. As to conditions: purified recombinant protein, protein details: GST fusion, E. coli, label: 32P.
Data set [3] relates to E2F1-DP1-pRb complex (pRb aa 300-928). Kind of data set: EMSA. The note with it: strength comparable to other E2F complexes; purified recombinant protein; protein details: GST fusion, E. coli; label: 32P.
Data set [4] deals with E2F4-DP1-p107 complex (p107 aa 744-2460 as printed). Kind of data set: footprint. As to conditions: DMS methylation protection, indistinguishable from E2F4-DP1; purified recombinant protein; protein details: GST fusion, E. coli; label: 32P.

As to TAGGAAA (double strand) [B-myb CHR], in data set [1], the binding result was “binds”.

“GGCGCCGACGCACTTGGCGGGAGATAGGAAAGTGGTTCTGTG (double strand) [B-myb E2F site probe]”: the binding result is “binds” in data set [2] (strength comparable to other E2F complexes, same DMS footprint as E2F4-DP1); “binds” in data set [3]; “binds” in data set [4].

For the sequence “GATCGACTAGTTTCGCGCCCTTTCTACTAG (double strand) [E2a adenovirus promoter probe]”, in data set [2] (similar affinity to B-myb site), the binding result was “binds”.
